PubChem BioAssay AID1347426 (Functional Genomics Laboratory (NCATS/FGL), 2020)
The whole screen tested about 31,000 sequences, of which about 1,400 (4.5%) were called active.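 Rule for the calls: active = median seed-adjusted z-score above 1 or below -1; inactive = the rest.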 Some of the results follow.

Test: Novel Modifiers of Survival Motor Neuron (SMN) Protein: Gene Identification via Genome-wide siRNA Screen;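 note: luminescence tracks full-length SMN protein made from the SMN2 reporter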
Settings: HEK293T SMN2-luciferase reporter, siRNA knockdown, 72 h; actives lie on both sides
Procedure, shortened: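 Luciferase signal, proportional to full-length SMN made from an SMN2 cDNA reporter in stable HEK293T cells, was read 72 h after siRNA reverse transfection. Values were expressed as MAD scores after non-targeting-control normalization and log10 conversion; seed analysis flagged off-targets.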

Row | Sequence | median seed-adjusted z-score
1 | CCGUUACAGAGAUAGCUUUTT against NCOA5 | inactive: 0.947
2 | AGAGCGAGCUGUUACGGUATT against PCBP4 | inactive: -0.269
3 | CAAAGUUCCUGAGCAAGGATT against SPRR3 | inactive: 0.682
4 | GAGGCUUCAUUUUAGAAGATT against XPA | active: 2.03
5 | GAUUGUCAUUCAAGAUAUATT against CMBL | inactive: 0
6 | UCUUAUUGCUGACUUCAAATT against KLK15 | inactive: 0
7 | CUAUGAUUAUAGCCGGGUATT against PTPN22 | inactive: -0.0843
8 | GGGUGUACCUGAUUCUGGATT against AURKC | inactive: -0.0275
9 | ACUUAGUCAUCAUCAAGUATT against GK | inactive: -0.474
10 | GACUACGCCUUGAAGCUAATT against TAF6 | active: -1.36
11 | CACCUGGAGCGAUGGAAUCTT against FXYD1 | inactive: 0.276
12 | CCUCCGAGCUUAGCAAAGATT against RAD51C | inactive: -0.0724
13 | GGAUAGUAUGAAUGAUCAATT against SRP54 | inactive: 0.203
14 | GACAAUAUCCUACCCAUUUTT against SLC25A16 | inactive: 0.0479
15 | UAAUAAAGCGGAUUCUAGATT against THAP7 | inactive: -0.0317
16 | GCAAUGAGGAUGUGACUAATT against PSIP1 | inactive: 0.549
17 | CCUUUCAAGAGUCAAGUAATT against REXO4 | inactive: -0.166
18 | GAAUAUCACAAUACACUGUTT against FCGR1B | inactive: 0.2
19 | CUGCCUACGUGAACUGGAUTT against TPSG1 | inactive: 0
20 | GCAUAGCUCUGGGCUACUATT against FIGN | inactive: -0.2
21 | AGAGCUUUGUCAAAGAGGATT against CENTB5 | inactive: 0.183
22 | GCAGGGAAAGGCUCUGAAATT against LTA | inactive: 0.273
23 | AGGGUUUGAUGUUCGGCUATT against MAT1A | inactive: 0.501
24 | GAUCCAAGGCGAUAAGGAATT against TRIM59 | inactive: 0.941
25 | GCAAUCGAGUCACACUGAATT against BICC1 | inactive: -0.352
26 | CCAGCGUAGUUUCAAGUAUTT against WNK1 | inactive: -0.121
27 | GCCUGAGUCAUAAAGGGAATT against MLLT6 | inactive: -0.281

Row | Sequence | median seed-adjusted z-score
28 | AGAACGGGAUUGUUUAAUATT against MTHFSD | inactive: -0.298
29 | GGAUUCACAAUCACGAUUATT against TTC13 | inactive: 0.0363
30 | AGCUUCUACCGUGUCCUUATT against UCK2 | active: -1.51
31 | GCAGGAACCCAGUAGGAUATT against ERAP1 | inactive: -0.0666
32 | GAUUGUCUGUUACGAAAAATT against SLC9A10 | inactive: -0.0418
33 | GACCUACUCUAGUGACAGATT against TRERF1 | inactive: -0.0952
34 | GCAACAACGAGAACCGUGATT against ING1 | inactive: 0.121
35 | GGACCAAAAAUGUCGAGUATT against SCN9A | inactive: -0.581
36 | GAACGGGUGUUUGACCACATT against EIF3C | inactive: 0.56
37 | GGUUUUGCACAGCGAGGAATT against B3GALT4 | inactive: 0.233
38 | CACCCAAAGUGGGUGCUGATT against GZMM | inactive: -0.17
39 | GGAAAGUCGUGAUCCUAGUTT against SLC30A9 | inactive: -0.0779
40 | GCAUCGGAGUAAGGCAUUUTT against SLC15A1 | inactive: -0.693
41 | GGGUAAACGAUUCCAGCAATT against N-PAC | inactive: 0.0542
42 | GCAGAUUGAUAUACUAGGATT against ZNF192 | inactive: 0
43 | ACAUCACGCUGAGCACCCATT against PCBD1 | inactive: 0
44 | GAAGAGAUGUUCAACUGCATT against RAB35 | inactive: 0.317
45 | GCGACGGACUCAGAGAAAATT against KIFC2 | inactive: 0.932
46 | GUUUACCUCUAUGACCGAATT against SEC23IP | inactive: -0.0226
47 | ACUGAGGCAUUUUCCCUAATT against KRT37 | inactive: 0.0484
48 | GCAUUUUGAUAGCUACAUATT against UGT3A1 | inactive: 0.864
49 | AGAUGUGCUUUGACGAGGATT against 12-Sep | inactive: 0.286
50 | GCAGCAACCUUGUCAUCCATT against ZNF692 | inactive: 0.556
51 | CCAUCACCACCGCAUACUATT against RAB3A | inactive: -0.0787
52 | GCUUUGACCGCUACCUGAATT against CXCR3 | inactive: 0.693
53 | UCGUGUUCCUAGUCAUCUATT against TCIRG1 | inactive: 0.123
54 | GUCCAAAGAGUGUCCGAUATT against RBM4 | inactive: 0.0148

Three entries drawn at random from the list so far:
Row | Sequence | median seed-adjusted z-score
50 | GCAGCAACCUUGUCAUCCATT against ZNF692 | inactive: 0.556
42 | GCAGAUUGAUAUACUAGGATT against ZNF192 | inactive: 0
31 | GCAGGAACCCAGUAGGAUATT against ERAP1 | inactive: -0.0666
